Reference: the supplement of paper PMC10735217
This is one part of the list. Repeats in this data set agree poorly, so a single value says little.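 Human kidney-derived cells stably carry a construct in which eight TEAD-binding elements drive luciferase, measured by luminescence in a drug-repurposing library screen. A hit is any compound whose signal exceeds the plate mean by more than five robust Z scores.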

Tested on: HEK293A TEAD-LUC reporter
Assay: TEAD-luciferase reporter activity (YAP activation), robust Z score vs plate; higher = stronger YAP/TEAD activation
Settings: 24 h

Measured: TEAD-luciferase reporter activity

C=C(C)[C@]12C[C@@H](C)[C@@]34O[C@](Cc5ccccc5)(O[C@@H]1[C@@H]3C=C(COC(=O)Cc1ccc(O)c(OC)c1)C[C@]1(O)C(=O)C(C)=C[C@@H]41)O2 [Resiniferatoxin]
active: compound concentration: 200 nM 18.9 | compound concentration: 2 uM 14.3 | compound concentration: 10 uM 14.6
